Data as given in paper PMC9943664.
No constants are given. Whether binding was seen depends on the method and setting. In cells and extracts the contact can be indirect. Some binding calls cover weakened binding; strength is not graded here.

The chains behind the UniProt entries cited, without tags or fusion partners.
UniProt P60842: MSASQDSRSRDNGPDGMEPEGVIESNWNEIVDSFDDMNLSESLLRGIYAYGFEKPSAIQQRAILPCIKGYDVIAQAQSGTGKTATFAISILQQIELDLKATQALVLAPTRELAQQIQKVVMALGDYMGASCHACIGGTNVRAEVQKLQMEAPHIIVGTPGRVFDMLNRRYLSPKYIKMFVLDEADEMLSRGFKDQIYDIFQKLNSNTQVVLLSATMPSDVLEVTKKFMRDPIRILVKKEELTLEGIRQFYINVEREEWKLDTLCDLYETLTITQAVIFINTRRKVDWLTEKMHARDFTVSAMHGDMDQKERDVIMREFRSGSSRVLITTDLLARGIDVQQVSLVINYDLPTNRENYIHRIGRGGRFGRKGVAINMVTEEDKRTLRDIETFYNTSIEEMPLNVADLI
UniProt O00571: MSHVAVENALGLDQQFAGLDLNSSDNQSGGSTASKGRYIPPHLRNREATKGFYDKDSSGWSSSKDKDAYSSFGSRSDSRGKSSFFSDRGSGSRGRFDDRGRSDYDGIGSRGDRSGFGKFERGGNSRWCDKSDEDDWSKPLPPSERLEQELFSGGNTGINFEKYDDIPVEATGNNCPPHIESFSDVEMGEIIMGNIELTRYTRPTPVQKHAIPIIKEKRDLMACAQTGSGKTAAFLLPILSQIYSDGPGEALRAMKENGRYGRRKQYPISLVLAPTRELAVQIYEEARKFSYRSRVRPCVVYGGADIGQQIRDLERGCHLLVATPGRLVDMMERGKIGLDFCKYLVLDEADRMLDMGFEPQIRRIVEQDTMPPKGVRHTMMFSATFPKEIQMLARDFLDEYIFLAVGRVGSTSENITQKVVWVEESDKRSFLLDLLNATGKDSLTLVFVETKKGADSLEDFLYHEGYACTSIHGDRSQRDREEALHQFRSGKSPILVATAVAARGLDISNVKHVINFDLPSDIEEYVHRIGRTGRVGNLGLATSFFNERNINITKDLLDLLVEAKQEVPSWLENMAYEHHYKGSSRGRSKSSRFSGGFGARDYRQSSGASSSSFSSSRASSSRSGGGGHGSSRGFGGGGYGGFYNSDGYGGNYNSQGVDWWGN
UniProt Q13283: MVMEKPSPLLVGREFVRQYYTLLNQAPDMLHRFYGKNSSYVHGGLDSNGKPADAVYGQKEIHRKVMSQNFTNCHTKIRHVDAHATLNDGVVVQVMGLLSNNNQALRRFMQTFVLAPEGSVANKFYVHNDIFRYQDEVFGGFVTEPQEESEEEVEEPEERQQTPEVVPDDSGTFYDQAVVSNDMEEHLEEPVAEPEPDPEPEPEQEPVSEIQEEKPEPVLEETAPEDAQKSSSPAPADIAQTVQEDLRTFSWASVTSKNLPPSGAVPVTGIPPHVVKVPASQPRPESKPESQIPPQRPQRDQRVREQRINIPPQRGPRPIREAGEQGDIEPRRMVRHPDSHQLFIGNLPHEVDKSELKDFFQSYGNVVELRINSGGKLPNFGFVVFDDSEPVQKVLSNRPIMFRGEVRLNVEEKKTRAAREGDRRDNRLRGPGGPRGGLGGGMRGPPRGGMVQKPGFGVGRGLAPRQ

Assays:
[1] = molecular target: eIF4A1 (human (endogenous in HeLa)) (UniProt P60842); assay: co-IP; immunoprecipitation of endogenous eIF4A1 (4 ug antibody on Dynabeads Protein A, 2 h at 4°C) from SG core-enriched fractions of HeLa cells exposed to As[III] (0.5 mM, 1 h; with or without recovery in fresh medium); western blotting
[2] = molecular target: DDX3X (human (endogenous in HeLa)) (UniProt O00571); assay: co-IP; reciprocal immunoprecipitation of endogenous DDX3X (4 ug antibody on Dynabeads Protein A, 2 h at 4°C) from SG core-enriched fractions of HeLa cells acutely exposed to As[III] (0.5 mM, 1 h); western blotting

| Molecule | binding [1] | binding [2] |
| --- | --- | --- |
| G3BP1 (from UniProt Q13283 1-466) | binds |  |
| DDX1 (protein, UniProt Q92499 1-740) MAAFSEMGVMPEIAQAVEEMDWLLPTDIQAESIPLILGGGDVLMAAETGSGKTGAFSIPVIQIVYETLKDQQEGKKGKTTIKTGASVLNKWQMNPYDRGSAFAIGSDGLCCQSREVKEWHGCRATKGLMKGKHYYEVSCHDQGLCRVGWSTMQASLDLGTDKFGFGFGGTGKKSHNKQFDNYGEEFTMHDTIGCYLDIDKGHVKFSKNGKDLGLAFEIPPHMKNQALFPACVLKNAELKFNFGEEEFKFPPKDGFVALSKAPDGYIVKSQHSGNAQVTQTKFLPNAPKALIVEPSRELAEQTLNNIKQFKKYIDNPKLRELLIIGGVAARDQLSVLENGVDIVVGTPGRLDDLVSTGKLNLSQVRFLVLDEADGLLSQGYSDFINRMHNQIPQVTSDGKRLQVIVCSATLHSFDVKKLSEKIMHFPTWVDLKGEDSVPDTVHHVVVPVNPKTDRLWERLGKSHIRTDDVHAKDNTRPGANSPEMWSEAIKILKGEYAVRAIKEHKMDQAIIFCRTKIDCDNLEQYFIQQGGGPDKKGHQFSCVCLHGDRKPHERKQNLERFKKGDVRFLICTDVAARGIDIHGVPYVINVTLPDEKQNYVHRIGRVGRAERMGLAISLVATEKEKVWYHVCSSRGKGCYNTRLKEDGGCTIWYNEMQLLSEIEEHLNCTISQVEPDIKVPVDEFDGKVTYGQKRAAGGGSYKGHVDILAPTVQELAALEKEAQTSFLHLGYLPNQLFRTF | binds | binds |
